Results of single-concentration screens

From ChEMBL document CHEMBL3988442, “University of Dundee, Small-Polar-MMV Screening Library” (2021).

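Whole-parasite assay of Trypanosoma brucei over 72 hours; the read-out is not stated. Tested at 30 µM. Higher reads as stronger inhibition (inferred: compounds with an IC50 in retests scored well above the rest). Values scatter widely below zero; nearly all retest evidence comes from the higher of the two concentrations used. Of about 64,000 compounds tested this way, about 940 (1.5%) reached 50% or more in at least one test.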

Values are the deposited “Percent Effect”, in %. The record does not define 0% and 100%; most values in the screen are far below 50% and negative numbers occur (in some assays of this library far below -100). The compounds are a random part of those screened.

{"compound": "Cc1cccc(NC(=O)[C@@H]2CCCN2Cc2nc(C)c(C)o2)n1", "percent effect": -21.49}
{"compound": "O=C(C1CC1)N1CCC[C@]2(C[C@@H](OCc3ccncc3)CO2)C1.O=C(O)C(F)(F)F", "percent effect": -3.104}
{"compound": "COCCN1CCN(c2ccc3ccc(C(=O)NC4CC4)cn23)CC1", "percent effect": -15.79}
{"compound": "N#Cc1ccc(OCC(=O)N2CCCC(n3cccn3)C2)cc1", "stereo": "stereo not drawn", "percent effect": 12.85}
{"compound": "COC1(CNC(=O)c2ccsc2)CCSC1", "stereo": "stereo not drawn", "percent effect": -7.751}
{"compound": "CC(NC(=O)CN1CCN(Cc2ccc(Br)s2)CC1)c1ccccc1", "stereo": "stereo not drawn", "percent effect": -96.8}
{"compound": "O=C(CN1CCCC1c1nc(-c2ccccn2)no1)N1CCNCC1", "stereo": "stereo not drawn", "percent effect": -22.72}
{"compound": "O=S1(=O)NC(C2CCCN(S(=O)(=O)N3CCCC3)C2)=Nc2ccccc21", "stereo": "stereo not drawn", "percent effect": -19.36}
{"compound": "CCOc1cccc(CNC(=O)C(C)(C)C#N)c1OC(F)F", "percent effect": 5.266}
{"compound": "Cc1ccc(=O)n(CC2(O)CCN(Cc3cnc(N(C)C)nc3)CC2)n1", "percent effect": -20.01}
{"compound": "O=C(N[C@@H]1c2ccccc2C[C@@H]1O)C1CCN(Cc2ccco2)CC1", "percent effect": -27.07}
{"compound": "COCCNC(=O)c1cc(-c2cc[nH]n2)n2ccccc12.O=C(O)C(F)(F)F", "percent effect": -31.19}
{"compound": "O=C1Nc2ccccc2/C1=C1\\CCCN1", "percent effect": -38.19}
{"compound": "CCOc1ncccc1CNC(=O)NCCNC(=O)c1ccco1", "percent effect": -8.479}
{"compound": "Cc1noc(C)c1CCC(=O)NCCc1cccs1", "percent effect": 14.65}
{"compound": "CC(C)(C#N)c1ccccc1CN1CCC(N2CCCC2=O)CC1", "percent effect": 1.136}
{"compound": "c1ccc(-c2noc3c2CN(CC2CC2)CC3)cc1", "percent effect": -38.83}
{"compound": "[H][C@@]12CCN(C[C@@H]1CC)[C@@H](CNC(=O)Nc1cccc(C#N)c1)C2", "percent effect": -25.49}
{"compound": "COCC(=O)N(C)Cc1nc(N(C)C)ncc1-c1ccncc1", "percent effect": 1.307}
{"compound": "COc1ccc(NC(=O)NCC(O)c2ccccc2F)c(OC)c1", "stereo": "stereo not drawn", "percent effect": -16.71}
{"compound": "CNc1nc(C2CCCN2C(C)=O)nc2c1CN(CCO)CC2.O=CO", "stereo": "stereo not drawn", "percent effect": 20.17}
{"compound": "CC(C)Oc1cc(N2CC[C@@H](N3CCOCC3)[C@H](O)C2)nc(N)n1", "percent effect": -20.54}
{"compound": "Cc1noc(NCc2ccc(F)cc2F)n1", "percent effect": 72.2}
{"compound": "OC(COCc1ccccc1)CSc1nnc(C2CC2)n1C1CC1", "stereo": "stereo not drawn", "percent effect": -32.09}
{"compound": "CC(=O)c1cc(C(=O)N2CCN(C)Cc3ccccc32)n(C)c1", "percent effect": -39.99}
{"compound": "O=C(O)C(F)(F)F.O=C(O)C(F)(F)F.O=C1N(c2ccsc2)CCC12CCCN(Cc1cccnc1)C2", "stereo": "stereo not drawn", "percent effect": -106.6}
{"compound": "O=C(O)C(F)(F)F.O=C(O)C(F)(F)F.c1cncc(C2COC3(CCN(Cc4ccsc4)CC3)C2)c1", "stereo": "stereo not drawn", "percent effect": -15.56}
{"compound": "Cc1cc(NCc2ccc(CS(N)(=O)=O)cc2)nc(C)n1", "percent effect": -4.621}
{"compound": "CC(CNC(=O)N1CCSCC1)Cc1cccs1", "stereo": "stereo not drawn", "percent effect": 16.23}
{"compound": "Cc1noc(C)c1CCCNC(=O)Nc1ccc2c(c1)CC(=O)N2", "percent effect": -48.83}
{"compound": "CS(=O)(=O)N1CCC(Oc2ccc(C(=O)NCCC(N)=O)cc2Cl)CC1", "percent effect": -16.9}
{"compound": "COc1ccc(NC(=O)CSc2nc(C)cc(C)n2)cn1", "percent effect": -15.85}
{"compound": "Cc1nnc(N2CCC(CS(N)(=O)=O)CC2)c(C#N)c1C", "percent effect": -5.292}
{"compound": "Cn1cc(C(=O)N2CCCC2c2noc(C3CC3)n2)c2ccccc21", "stereo": "stereo not drawn", "percent effect": -8.937}
{"compound": "Cc1nc(O)cc(CN2C[C@H](NC(=O)C3CCC3)[C@@H](C3CC3)C2)n1", "percent effect": -55.41}
{"compound": "O=C(C1CC(c2ccccc2)=NO1)N1CCc2ccccc21", "stereo": "stereo not drawn", "percent effect": -129}
{"compound": "CN(CCc1ccncc1)C(=O)C1CSCN1C(=O)C1CCCC1", "stereo": "stereo not drawn", "percent effect": -22.73}
{"compound": "CN(C)S(=O)(=O)NC1CCCc2c1cnn2-c1ccc(C(C)(C)C)cc1", "stereo": "stereo not drawn", "percent effect": -0.4268}
{"compound": "COc1ncccc1-c1nc(-c2ccccn2)nn1C1CCS(=O)(=O)C1", "stereo": "stereo not drawn", "percent effect": -32.08}
{"compound": "c1ccc2c(NCC3(N4CCOCC4)CCSC3)ncnc2c1", "stereo": "stereo not drawn", "percent effect": -37.24}
{"compound": "CC1Cn2c(nc3c2c(=O)[nH]c(=O)n3C)O1", "stereo": "stereo not drawn", "percent effect": 12.89}
{"compound": "c1ccc(-c2cccc(-c3ccn(CCN4CCCCC4)n3)c2)nc1", "percent effect": -15.71}
{"compound": "CN(C)C1(CNC(=O)c2c(O)cc(Cl)cc2Cl)CCOCC1", "percent effect": 0.3124}
{"compound": "CCCn1nnnc1COc1ccc(C(=O)OC)cc1OC", "percent effect": -14.92}
{"compound": "Cc1cc(C)c2nc(CN3C[C@H](CCO)[C@@H](N)C3)cc(O)c2c1", "percent effect": -27.32}

For reference, 4 entries once more:

| Compound | percent effect |
|---|---|
| `c1ccc(-c2noc3c2CN(CC2CC2)CC3)cc1` | -38.83 |
| `CC(=O)c1cc(C(=O)N2CCN(C)Cc3ccccc32)n(C)c1` | -39.99 |
| `COCCNC(=O)c1cc(-c2cc[nH]n2)n2ccccc12.O=C(O)C(F)(F)F` | -31.19 |
| `COCCN1CCN(c2ccc3ccc(C(=O)NC4CC4)cn23)CC1` | -15.79 |